Results are given in words; binding and its absence hold for the method and conditions named. Some entries that bind do so weakly or less than the wild type. Values belong to the binder of their own block, whether it stands above or below them.
Assays:
hSIRPα-V2 on U2OS cells = target: T1, hSIRPα-V2 on U2OS cells (human, UniProt P78324 31-504); experiment: immunofluorescence on U2OS cells transiently expressing hSIRPα-V2
T1 construct: whole, on cells

Chains of the proteins cited; added tags and fusions are not shown. Lines headed by an entry give the natural chain unless they say otherwise; changes in a name come on top. A line that says so, or that is headed by a name, gives the form on record, which may keep a tag or linker. Residues count along the entry.
full-length hSIRPα on cells (P78324, residues 31-504): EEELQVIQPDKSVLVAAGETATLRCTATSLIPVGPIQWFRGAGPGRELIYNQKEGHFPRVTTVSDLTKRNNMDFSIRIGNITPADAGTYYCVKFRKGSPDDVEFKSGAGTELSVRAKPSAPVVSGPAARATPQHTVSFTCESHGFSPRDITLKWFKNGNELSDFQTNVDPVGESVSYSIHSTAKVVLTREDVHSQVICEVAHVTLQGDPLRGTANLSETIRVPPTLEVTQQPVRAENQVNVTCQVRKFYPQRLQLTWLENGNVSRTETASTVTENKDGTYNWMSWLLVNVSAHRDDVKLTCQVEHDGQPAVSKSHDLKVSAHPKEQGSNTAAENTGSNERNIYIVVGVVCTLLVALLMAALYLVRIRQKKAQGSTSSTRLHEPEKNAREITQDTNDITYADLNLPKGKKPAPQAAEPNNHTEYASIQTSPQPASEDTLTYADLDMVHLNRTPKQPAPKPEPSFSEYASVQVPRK
hSIRPα-V2 on U2OS cells (P78324, form named): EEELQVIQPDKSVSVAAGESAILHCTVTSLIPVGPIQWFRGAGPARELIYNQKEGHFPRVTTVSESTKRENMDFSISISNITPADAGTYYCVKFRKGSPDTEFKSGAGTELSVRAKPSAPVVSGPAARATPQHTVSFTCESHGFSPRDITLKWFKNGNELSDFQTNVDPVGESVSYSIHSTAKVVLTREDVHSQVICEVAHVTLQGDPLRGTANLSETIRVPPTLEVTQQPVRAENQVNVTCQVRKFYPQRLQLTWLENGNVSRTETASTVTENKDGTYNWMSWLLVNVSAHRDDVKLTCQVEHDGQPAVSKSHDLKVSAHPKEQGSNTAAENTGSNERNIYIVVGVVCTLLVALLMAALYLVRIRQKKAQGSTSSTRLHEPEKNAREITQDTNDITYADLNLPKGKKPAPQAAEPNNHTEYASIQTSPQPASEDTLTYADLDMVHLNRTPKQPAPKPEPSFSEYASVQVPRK
UniProt O00241, residues 30-398: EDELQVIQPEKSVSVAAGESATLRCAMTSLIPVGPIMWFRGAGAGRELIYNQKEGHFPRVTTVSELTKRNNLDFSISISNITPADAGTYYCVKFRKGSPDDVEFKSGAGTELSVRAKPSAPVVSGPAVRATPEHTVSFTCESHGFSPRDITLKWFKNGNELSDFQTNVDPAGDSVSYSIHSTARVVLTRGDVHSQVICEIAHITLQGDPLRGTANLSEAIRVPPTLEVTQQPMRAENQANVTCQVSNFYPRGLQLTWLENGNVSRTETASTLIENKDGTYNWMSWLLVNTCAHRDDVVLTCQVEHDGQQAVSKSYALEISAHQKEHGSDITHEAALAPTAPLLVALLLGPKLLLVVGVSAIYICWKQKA
UniProt Q9P1W8, residues 29-387: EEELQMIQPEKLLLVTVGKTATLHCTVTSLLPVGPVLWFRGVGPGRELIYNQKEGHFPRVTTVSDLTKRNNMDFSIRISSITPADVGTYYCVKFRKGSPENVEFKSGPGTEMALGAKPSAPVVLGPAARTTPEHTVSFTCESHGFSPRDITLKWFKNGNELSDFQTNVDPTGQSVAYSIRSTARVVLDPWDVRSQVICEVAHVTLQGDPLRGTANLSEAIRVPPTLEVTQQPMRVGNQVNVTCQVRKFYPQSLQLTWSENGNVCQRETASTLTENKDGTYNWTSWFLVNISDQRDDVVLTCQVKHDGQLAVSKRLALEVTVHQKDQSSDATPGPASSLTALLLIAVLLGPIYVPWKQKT

hSIRPβ1 on U2OS cells = target: T2, hSIRPβ1 on U2OS cells (human, UniProt O00241 30-398); experiment: immunofluorescence on U2OS cells transiently expressing hSIRPβ1
T2 construct: whole, on cells; also called SIRP beta
Description: (§1) Stably expressing hSIRPα U2OS cells, U2OS wt or U2OS cells transiently expressing individual hSIRPα domains (D1-3) with SPOT-Tag or different hSIRP family members (hSIRPα-V1, hSIRPα-V2, hSIRPβ1, hSIRPγ, murine SIRPα) were plated at ˜10,000 cells per well of a μClear 96-well plate (Greiner Bio One, cat. #655090) and cultivated overnight at standard conditions. For imaging, medium was replaced by live-cell visualization medium DMEMgfp-2 (Evrogen, cat. #MC102) supplemented with 10% FBS, 2 mM L-glutamine, 2 μg/ml Hoechst33258 (Sigma Aldrich) for nuclear staining. 1-100 nM of unlabeled hSIRPα Nbs in combination with 2.5 μg/ml anti-VHH secondary Cy5 AffiniPure Goat Anti-Alpaca IgG (Jackson Immuno Research) were added and incubated for 1 h at 37° C. For control staining hSIRPα Ab PE (SE5A5, BioLegend) and bivSPOT-Nb labeled with AlexaFluor647 (AF647) were used. Images were acquired with a MetaXpress Micro XL system (Molecular Devices) at 20× or 40× magnification.
(§2) Moreover, with hSIRPαV1 and hSIRPαV2, two isoforms are expressed either homozygously (v1/v1 or v2/v2) or heterozygously (v1/v2), and the frequency of distribution varies between human subpopulations (Sim et al., “Discovery of high affinity, pan-allelic, and pan-mammalian reactive antibodies against the myeloid checkpoint receptor SIRPα”, MAbs. Taylor & Francis (2019) pp. 1036-1052). To address the question of specificity, hSIRPβ1, hSIRPγ or the hSIRPα polymorphisms hSIRPα-V1 and hSIRPα-V2 were transiently expressed in U2OS cells and their recognition was analyzed by the selected hSIRPα Nbs by immunofluorescence staining. In addition, murine SIRPα was included to evaluate potential cross-reactivity between human and mouse SIRPα variants (FIG. 3A; data not shown).

[1] = target: full-length hSIRPα on cells (human) (UniProt P78324); experiment: live-cell immunofluorescence, U2OS cells stably expressing full-length hSIRPα
[2] = target: full-length hSIRPα on cells (human) (UniProt P78324); experiment: flow cytometry, AF647-labelled Nb (200 nM) on CD14+ human PBMCs of three donors
[3] = target: full-length hSIRPα on cells (human) (UniProt P78324); experiment: live-cell immunofluorescence on U2OS cells stably expressing hSIRPα, detection with anti-VHH-Cy5, U2OS-wt as control
hSIRPγ on U2OS cells = target: T3, hSIRPγ on U2OS cells (human, UniProt Q9P1W8 29-387); experiment: immunofluorescence on U2OS cells transiently expressing hSIRPγ
T3 construct: whole, on cells; also called SIRP gamma
Description: as §1, §2

binding (hSIRPα-V2 on U2OS cells): binds
binding (hSIRPβ1 on U2OS cells): binds
binding [1]: binds
binding [2]: binds
binding [3]: binds
B1: hSIRPα nanobody S45 (VHH)
VHH: HVQLVESGGGLVQPGGSLRLSCAARGFSFRDSAMSWARQAPGKGLEWVGAIYSDGSTVYEKSVKGRFTISRDNAKNTMYLQMHSLKPEDSARYYCAPKGVVADEGDYSGQGTLVTVSS
notes: also called Nb S45

binding (hSIRPα-V2 on U2OS cells): binds
binding (hSIRPβ1 on U2OS cells): binds
binding [1]: binds
binding [3]: binds
B2: hSIRPα nanobody S7 (VHH)
VHH: HVQLVESGGGLVQVGDSLRLSCAPSGRTFRAYAMAWFRQAPGKEREFVAAIRWIGGTPSYKDSVKGRFTISRDNARNTFYLQMNSLEPQDTGVYYCAAEETQKGSGLGHDGRHYDYWGQGTPVTVSS
notes: Expressed from pHEN6 in E. coli and purified by IMAC; the tag is not described; also called Nb S7

binding (hSIRPγ on U2OS cells): binds
binding (hSIRPβ1 on U2OS cells): binds
binding [1]: binds
binding [2]: binds
binding [3]: binds
B3: hSIRPα nanobody S12 (VHH)
VHH: QVQLVESGGGLVQPGGSLRLSCLVSGFSSSYYAIGWFRQAPGKEREGVSCITRSGDTTNYADSVKGRFTISRDDARNTVYLQMNSLKTEDTAVYSCALWAWAGSGRLRCTASEYGHWGQGTQVTVSS
notes: also called Nb S12

binding (hSIRPα-V2 on U2OS cells): binds
binding (hSIRPγ on U2OS cells): binds
binding (hSIRPβ1 on U2OS cells): binds
binding [1]: binds
binding [2]: binds
binding [3]: binds
B4: hSIRPα nanobody S8 (VHH)
VHH: QVQLVESGGGLVQPGGSLRLSCADSEFRLDEYATGWFRQAPGKEREGVACISRSGSNTKYTDSVKGRFTISRDNAKKTVYLQMNSLKPEDTAVYYCAADLTSHYLSCSSYTDYNSWGQGTQVTVSS
notes: Purified by IMAC; the tag is not described; also called Nb S8

binding [1]: binds
binding [2]: binds
binding [3]: binds
B5: hSIRPα nanobody S36 (VHH)
VHH: EVQLVESGGGLVQPGGSLRLSCAASGFTLDYYAIGWFRQVPGKEREGVSCISSDGGGNTYYADSVKGRFTISRDNAKNTVYLQMNSLKPEDSAVYSCAAGPTYYSGSYCRDPHSDYDYWGQGTQVTVSS
notes: also called Nb S36; hSIRPα-S36 Nb

binding (hSIRPα-V2 on U2OS cells): binds
binding (hSIRPβ1 on U2OS cells): binds
binding [1]: binds
binding [2]: binds
binding [3]: binds
B6: hSIRPα nanobody S33 (VHH)
VHH: EVQLVESGGGLVQPGGSLRLSCTTSGFTLDYYSVGWFRQAPGKEREGVSCITASGSSTNYANSVKGRFTISRDKVKNTVYLQMSSLKPEDTAVYYCAAEPCTVVAGILQAPTSDFGSWGQGTQVTVSS
notes: also called Nb S33

binding (hSIRPγ on U2OS cells): binds
binding (hSIRPβ1 on U2OS cells): binds
binding [1]: binds
binding [2]: binds
binding [3]: binds
B7: hSIRPα nanobody S44 (VHH)
VHH: QVQLQESGGGLVQPGGSLRLACAASGFTFSSYDMSWVRQAPGKGLEWVSDIKSGGGRTYYADSVKGRFTISRDNAKNTVYLQMNSLKPEDTAVYYCGSLDNSGAYTGGGQGSQVTVSS
notes: also called Nb S44
